# Experimental data: PubChem BioAssay AID445 (National Center for Advancing Translational Sciences (NCATS), 2006)
# The other results are listed elsewhere or left out. Further columns of the screen follow, without active or inactive calls. Most of these compounds were active or inconclusive in the main read-out, so they are no random draw. The note in brackets gives the kind of curve behind each potency; many fits are weak.
# Experiment: IkB Signaling
# Settings: ABC-DLBCL IkBa-CBG/CBR dual luciferase ratio (green luciferase fused to IkBa over red control in OCI-Ly3 lymphoma cells), 4 h
# Summary of the method: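 Luminescence ratio of IκBα-fused green versus native red beetle luciferase in OCI-Ly3 cells, 4 h post-doxycycline with compound; red signal alone, scaled from basal (0%) to zero light (-100%), flagged nonspecific or cytotoxic effects.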
# [1] = measured here: control luc red channel unless noted
smiles,measurement,setting,value
Cc1ccc(C(=O)Nc2nc3nc(C)cc(=O)n3[nH]2)cc1,AC50,[1],"31.6 µM [falling, single point]"
COc1cccc(CNC(=O)CSc2nc(=O)[nH]c3c2CCC3)c1,AC50,[1],"39.8 µM [falling, single point]"
CCCN(C(=O)C(=O)Nc1ccc2nc3n(c(=O)c2c1)CCCCC3)c1ccc(OCC)cc1,AC50,[1],"20 µM [falling, single point]"
CCS(=O)(=O)c1ccc(O)c(NC(=O)c2cc(OC)c(OC)c(OC)c2)c1,AC50,[1],"25.1 µM [falling, partial curve]"
CCOc1ccccc1C(=O)Nc1cccc2ccc(C)nc12,AC50,[1],"12.6 µM [falling, partial curve]"
COC(=O)c1ccccc1NC(=O)CN1CCC(n2nnc3cc(C)ccc32)CC1,AC50,[1],"0.794 µM [falling, full curve]"
CCN1CCN(c2csc3ccc(F)cc3c2=O)CC1,AC50,[1],"15.8 µM [falling, single point]"
CCn1c(/C(C#N)=C(\O)CCc2ccccc2)nc2ccccc21,AC50,[1],"20 µM [falling, partial curve]"
O=C(Nc1nc(-c2cccs2)c(-c2ccccc2)s1)c1ccco1,AC50,[1],"25.1 µM [falling, partial curve]"
Cc1cccc(N(CC(N)=O)C2SC(=O)N(c3ccccc3)C2=O)c1 (centres undefined),AC50,[1],"0.794 µM [falling, full curve, poor fit]"
Cc1cccn2c(=O)cc(CSc3nnc(NC(=O)COc4ccc(F)cc4)s3)nc12,AC50,[1],"2.51 µM [falling, full curve]"
O=c1c2ccccc2cnn1-c1nc2ccccc2s1,AC50,[1],"0.00794 µM [falling, full curve]"
O=C(NCc1ccc2c(c1)OCO2)c1ccc(CS(=O)(=O)c2ccc(Br)cc2)o1,AC50,[1],"10 µM [falling, partial curve]"
O=C(Cc1ccccc1)N(Cc1cccnc1)c1nc2ccc(Cl)cc2s1,AC50,[1],"25.1 µM [falling, single point]"
CCn1c(COc2ccccc2C)nnc1SCC(=O)CC(=O)Nc1ccccc1,AC50,[1],"31.6 µM [falling, partial curve]"
Cc1ccc(CC2CC(=O)N(CCc3ccc4c(c3)OCO4)C2=O)cc1 (centres undefined),AC50,[1],"15.8 µM [falling, partial curve]"
CCOC(=O)c1c(C)oc2ncnc(N3CCN(c4ccc(C)cc4C)CC3)c12,AC50,[1],"20 µM [falling, single point]"
Cn1c(=O)c2c(nc(Oc3ccc(C#N)cc3)n2Cc2ccc(Cl)cc2Cl)n(C)c1=O,AC50,[1],"0.316 µM [falling, full curve, poor fit]"
COc1ccccc1N1CCN(C(=O)c2c(-c3c(Cl)cccc3Cl)noc2C)CC1,AC50,[1],"20 µM [falling, partial curve]"
CCOC(=O)c1ccccc1NC(=O)Cn1c(=O)n(CCC(=O)NCc2ccccc2OC)c(=O)c2ccccc21,AC50,[1],"10 µM [falling, partial curve]"
Cc1ccc(CNC(=O)c2oc3ccc(S(=O)(=O)N4CCC(C)CC4)cc3c2C)cc1,AC50,[1],"7.94 µM [falling, full curve]"
CCCCNC(=O)c1cc2c(=O)n3cccc(C)c3nc2s1,AC50,[1],"1.26 µM [rising, full curve]"
Cc1cccc(N2CCN(C(=O)c3cc4n(n3)C(C(F)(F)F)CC(c3ccco3)N4)CC2)c1C (centres undefined),AC50,[1],"25.1 µM [falling, partial curve]"
Cc1ccccc1NC(=O)CSc1nc2ccc(NC(=O)c3ccccc3)cc2s1,AC50,[1],"12.6 µM [falling, partial curve]"
Cc1nc(NC(=O)c2ccco2)sc1C(=O)Nc1ccc(Br)cc1,AC50,measured here: IkB-luc green channel,"31.6 µM [falling, partial curve]"
same,AC50,measured here: control luc red channel,"20 µM [falling, partial curve]"
Cc1ccccc1CN1C(=O)C(O)(CC(=O)c2ccccc2)c2cc(Cl)ccc21 (centres undefined),AC50,[1],"39.8 µM [falling, single point]"
Cc1oc(-c2ccc(C(=O)NCc3ccc(F)cc3)cc2)nc1CS(=O)c1ccccc1 (centres undefined),AC50,[1],"20 µM [falling, partial curve]"
CC(=O)c1cc2c(cc1N/C(=N/S(=O)(=O)c1ccccc1)c1ccc(Cl)cc1)OCO2,AC50,[1],"0.00794 µM [rising, full curve]"
O=C(Nc1cccc(-c2nc3ncccc3o2)c1)c1cc2ccccc2o1,AC50,[1],"3.98 µM [falling, full curve]"
C=CCn1c(COc2ccc(CC)cc2)nnc1SC/C(O)=C(\C#N)c1nc2ccccc2[nH]1,AC50,[1],"2 µM [falling, full curve]"
Cc1cc(C)cc(C(=O)Nc2c(C(=O)Nc3ccccc3F)oc3ccccc23)c1,AC50,[1],"0.0794 µM [rising, full curve, poor fit]"
COc1ccccc1OCCn1c(C(C)Oc2ccccc2)nc2ccccc21 (centres undefined),AC50,[1],"15.8 µM [falling, partial curve]"
COc1ccc2[nH]c3c(=O)n(CCCCC(=O)NCCN4CCCC4)c(=S)[nH]c3c2c1,AC50,[1],"12.6 µM [falling, partial curve]"
Cc1ccc(-n2ccnc(NCCc3ccc(S(N)(=O)=O)cc3)c2=O)c(C)c1,AC50,[1],"25.1 µM [falling, single point]"
Cc1ccc(N2CCN(S(=O)(=O)c3ccc4oc(=O)c5ncn(C)c5c4c3)CC2)c(C)c1,AC50,[1],"10 µM [falling, partial curve]"
CCOCCCNC(=O)Nc1cc(C(=O)NCc2ccc(C(C)C)cc2)ccc1N1CCCC1,AC50,[1],"12.6 µM [falling, partial curve]"
COc1cc2c(cc1OC)C(COc1ccc(F)cc1)N(C(=O)c1ccccc1F)CC2 (centres undefined),AC50,[1],"39.8 µM [falling, single point]"
Cc1cccc(-c2nnc(SCC(=O)N3CCCc4ccccc43)o2)c1,AC50,[1],"39.8 µM [falling, single point]"
CC(=O)c1ccc(C(=O)N(Cc2cccnc2)c2nc3c(Cl)cccc3s2)cc1,AC50,[1],"39.8 µM [falling, single point]"
Cc1ccc(S(=O)(=O)c2nnn3c2nc(NCc2cccs2)c2sccc23)cc1C,AC50,[1],"10 µM [falling, partial curve]"
Cc1cccc(CS(=O)(=O)c2ncc(Cl)c(C(=O)Nc3nc4ccc(F)cc4s3)n2)c1,AC50,[1],"7.94 µM [falling, full curve]"
Cn1nnnc1SCCNCc1ccccc1OCc1ccc(Cl)cc1Cl,AC50,[1],"39.8 µM [falling, single point]"
CC(C)N(C(=O)c1cc2c(Cl)nc3ccccc3c2s1)C1CCCCC1,AC50,[1],"15.8 µM [falling, partial curve]"
COc1cccc2sc(N3CCN(C(=O)CS(=O)(=O)c4ccc(Cl)cc4)CC3)nc12,AC50,[1],"39.8 µM [falling, single point]"
COc1cccc(CNc2ncc(-c3ccc(Br)cc3)n2C)c1,AC50,[1],"15.8 µM [falling, partial curve]"
O=C(NCCCn1ccnc1)c1cc2c(s1)CCCCC2,AC50,[1],"6.31 µM [falling, partial curve]"
O=C(NCCc1ccccc1)c1c(O)c2cccc3c2n(c1=O)CC3,AC50,[1],"15.8 µM [falling, partial curve]"
COc1ccccc1-c1cc(C(F)(F)F)nc(NCc2ccco2)n1,AC50,[1],"20 µM [falling, partial curve]"
Nc1c(-c2nc(-c3ccccc3)cs2)c2ccccn2c1C(=O)c1ccc2c(c1)OCO2,AC50,[1],"1.26 µM [falling, full curve]"
CCN1C(C(=O)c2ccccc2)=C(OC(=O)COc2ccccc2)c2ccccc2S1(=O)=O,AC50,[1],"12.6 µM [falling, partial curve]"
Cc1cc(C)c(S(=O)(=O)N2CCN(Cc3nc4ccc(C)cc4o3)CC2)c(C)c1,AC50,[1],"39.8 µM [falling, partial curve]"
CCc1ccccc1Nc1cc(C(=O)NCCc2ccccc2)c2ccccc2n1,AC50,[1],"7.94 µM [falling, partial curve]"
COc1ccccc1NC(=O)C1=C(C)Nc2nc3ccccc3n2C1c1cccc(Br)c1 (centres undefined),AC50,[1],"10 µM [falling, partial curve]"
O=C(Cn1c(=O)n(-c2ccc(F)cc2)c(=O)c2sc3ccccc3c21)NC1CCCCC1,AC50,[1],"39.8 µM [falling, single point]"
COc1ccc(OC)c(CCNc2nccn(-c3ccc(C)c(C)c3)c2=O)c1,AC50,[1],"31.6 µM [falling, single point]"
CCCn1ccc2c(OCC(=O)Nc3ccccc3OCC)cccc2c1=O,AC50,[1],"7.94 µM [rising, single point]"
O=C(NCC(c1cccnc1)N1CCOCC1)C(=O)Nc1ccc(F)cc1 (centres undefined),AC50,[1],"25.1 µM [falling, partial curve]"
O=C(Nc1ccc2nc(SCC(=O)N3CCCc4ccccc43)sc2c1)c1cccc(Cl)c1,AC50,[1],"1 µM [falling, full curve, poor fit]"
COc1ccc(CCNC(=O)C2CCN(c3nc4ccccc4nc3C(F)(F)F)CC2)cc1OC,AC50,[1],"20 µM [falling, single point]"
CCOc1ccccc1-n1c(COc2ccc(C)cc2)nnc1SCC(N)=O,AC50,[1],"10 µM [falling, partial curve]"
COc1ccc(C(=O)Oc2c(Sc3ccccc3)c(C)nn2-c2ccccc2)cc1OC,AC50,[1],"12.6 µM [falling, partial curve]"
COc1ccc(-c2noc(Cn3c(=O)c4ccccc4n(CC(=O)Nc4cccc(C(F)(F)F)c4)c3=O)n2)cc1,AC50,[1],"7.94 µM [falling, partial curve]"
Cc1ccc(C)c(NS(=O)(=O)c2ccc3c(c2)n(C)c(=O)n3C)c1,AC50,[1],"31.6 µM [rising, partial curve]"

# 5 entries drawn at random from those above:
smiles,measurement,setting,value
CCCn1ccc2c(OCC(=O)Nc3ccccc3OCC)cccc2c1=O,AC50,[1],"7.94 µM [rising, single point]"
Cc1cccc(-c2nnc(SCC(=O)N3CCCc4ccccc43)o2)c1,AC50,[1],"39.8 µM [falling, single point]"
Cc1ccccc1NC(=O)CSc1nc2ccc(NC(=O)c3ccccc3)cc2s1,AC50,[1],"12.6 µM [falling, partial curve]"
CCOC(=O)c1c(C)oc2ncnc(N3CCN(c4ccc(C)cc4C)CC3)c12,AC50,[1],"20 µM [falling, single point]"
CC(=O)c1ccc(C(=O)N(Cc2cccnc2)c2nc3c(Cl)cccc3s2)cc1,AC50,[1],"39.8 µM [falling, single point]"
